Experimental data: PubChem BioAssay AID743454 (Peter MacCallum Cancer Centre, 2014)
Here is a random part of about 18,000 reagents. Over the whole deposit, 450 (2.5%) got an active call. 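Single biological run; no consistent viability z cut-off exists, so the class columns, not z-scores, define the calls.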 The numbers tell different reagents against one gene apart.

Aim: 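Knock-downs lowering viability or raising caspase 3/7 activity in vorinostat-treated resistant cells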 (primary screen)
System: human HCT116-VR colon cancer cells, selected for vorinostat resistance
Knock-down reagent: siRNA pool against human genes, 40 nM siRNA pool
Time to read-out: vorinostat for 24 h, read-out about 72 h after transfection
Challenge: vorinostat at 2.5 µM final
Detection: 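Cell viability by CellTiter-Fluor and caspase 3/7 activity by luminescence, each scaled to mock wells per plate, duplicates averaged, then robust z-scored over all plates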
Reading the numbers: viability robust z-score: higher = more viable cells than screen typical; caspase robust z-score: higher = more caspase 3/7 activity than screen typical
Rule for the call: 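Hits are knock-downs in viability class RV1/RV2 or caspase class CA1/CA2, excluding ones that killed cells in the no-drug cell-count arm; hits then retested with single siRNAs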

viability hit class	caspase hit class	viability robust z-score	caspase robust z-score	call	gene	pool no.
no change	no change	-0.11	0.26	inactive	CHRNA3	1
no change	no change	-1.19	0.63	inactive	SMARCD1	1
no change	no change	0.14	2.53	inactive	MRGPRF	1
no change	no change	0.3	-0.22	inactive	OR6A2	1
no change	no change	1.35	-0.34	inactive	NPR3	1
no change	no change	0.34	-0.66	inactive	NPR3	2
no change	no change	-0.84	0.65	inactive	NTMT1	1
no change	no change	0.06	0.3	inactive	TMUB2	1
no change	no change	1.77	-0.3	inactive	NRCAM	1
no change	no change	-3.68	0.54	inactive	TUBA1A	1
no change	no change	0.52	-0.28	inactive	CHCHD1	1
no change	no change	-0.14	0.37	inactive	SNTB2	1
no change	no change	-0.83	-0.74	inactive	DHX32	1
no change	no change	-1.28	-0.3	inactive	HCFC1	1
no change	no change	0.82	1.38	inactive	OTX1	1
no change	no change	-3.19	0.09	inactive	BATF2	1
no change	no change	1.53	1.83	inactive	QSER1	1
no change	no change	0.48	-0.28	inactive	IPO8	1
no change	no change	-0.86	4.65	inactive	MYCT1	1
no change	no change	0.21	-0.32	inactive	PPP1CC	1
no change	no change	-0.48	-0.3	inactive	CYSLTR2	1
no change	no change	-0.37	-0.24	inactive	TRIM2	1
no change	no change	-1.1	0.13	inactive	ZNF44	1
no change	no change	-1.82	4.05	inactive	LPAR4	1
no change	no change	0.56	-0.09	inactive	DHRS3	1
no change	no change	0.3	-0.72	inactive	OR2H2	1
no change	no change	0.33	3.34	inactive	TTC3	1

Already shown: 9 of the entries above.
viability hit class	caspase hit class	viability robust z-score	caspase robust z-score	call	gene	pool no.
no change	no change	-1.28	-0.3	inactive	HCFC1	1
no change	no change	0.82	1.38	inactive	OTX1	1
no change	no change	-3.19	0.09	inactive	BATF2	1
no change	no change	1.53	1.83	inactive	QSER1	1
no change	no change	0.48	-0.28	inactive	IPO8	1
no change	no change	-0.86	4.65	inactive	MYCT1	1
no change	no change	0.21	-0.32	inactive	PPP1CC	1
no change	no change	-0.48	-0.3	inactive	CYSLTR2	1
no change	no change	-0.37	-0.24	inactive	TRIM2	1

The list goes on.
viability hit class	caspase hit class	viability robust z-score	caspase robust z-score	call	gene	pool no.
no change	no change	0.42	1.48	inactive	ALDH8A1	1
no change	no change	-0.7	-0.26	inactive	MOAP1	1
no change	CA2 (caspase activation)	-2.55	7.61	active	ANGPT1	1
no change	CA1 (caspase activation)	-0.88	5.2	active	RAB29	1
no change	no change	0.3	0.72	inactive	YARS2	1
RV2 (reduced viability)	no change	-3.12	3.59	active	MT3	1
no change	no change	0.72	1.15	inactive	SEPTIN5	1
no change	no change	-0.17	-0.12	inactive	GAGE6	1
no change	no change	-0.24	-0.34	inactive	PDIA6	1
no change	no change	-0.88	-0.53	inactive	LRRC4C	1
no change	no change	0.62	0.62	inactive	SERHL2	1
RV2 (reduced viability)	no change	-4.27	1.75	active	ZNF490	1
no change	no change	1	-0.5	inactive	CDHR1	1
no change	no change	-3.63	0.28	inactive	ALDOA	1
no change	no change	0	2.34	inactive	METTL21C	1
no change	no change	0.11	2.74	inactive	MCC	1
no change	CA1 (caspase activation)	-0.58	5.66	active	HOXA2	1
no change	no change	0.54	-0.34	inactive	FN1	1
no change	no change	-1.81	-0.62	inactive	GPC2	1
no change	no change	1.76	-0.33	inactive	C14orf39	1
no change	no change	0	-0.59	inactive	C10orf71	1
RV2 (reduced viability)	no change	-3.91	2.16	active	DDX19B	1
no change	no change	1.84	0.2	inactive	CYP3A43	1
no change	no change	0.78	0.1	inactive	MUTYH	1
no change	no change	-0.72	-0.08	inactive	ADGRL4	1
no change	no change	0.31	0.24	inactive	PNMA8A	1
no change	no change	1.46	-0.88	inactive	LIN7A	1
no change	no change	1	-0.24	inactive	LMAN1	1
no change	no change	-1.15	-0.36	inactive	NSUN2	1
no change	no change	1.31	-1.1	inactive	CPNE3	1
